Record: PubChem BioAssay AID1053208 (Peter MacCallum Cancer Centre, 2014)
Screen: 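Genes whose silencing cuts survival of bone tumour cells only with doxorubicin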 (primary screen). System: mouse osteosarcoma cells, early-passage culture from an engineered mouse model of fibroblastic bone tumour. Reagent: siRNA pool against mouse genes, 40 nM. Time to read-out: about 120 h (48 h before drug, then 72 h with drug). Treatment: doxorubicin 100 nM for 72 h, roughly 30-40% inhibitory dose. Measured: 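Luminescent ATP signal taken as viability with or without 100 nM doxorubicin for 72 h; mean of two wells set against non-targeting siRNA and turned into robust z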. Scale: viability z-score with doxorubicin: higher = more viable cells under doxorubicin; viability z-score without drug: higher = more viable cells with knock-down alone. Rule for the call: 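Called active if knock-down leaves viability unchanged without drug (z within -2 to 2) but lowers it with doxorubicin (z at or under -2)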.
This is one part, drawn at random, of about 17,000 reagents. 788 of them (4.7%) count as active. 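Calls rest on z-score classes alone; an extra cut-off of viability at most 70% of control was not applied to them.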 A number with no mark means an inactive call. Not all columns of the deposit are shown. Reagent sequences are not shown.

With Prm3, how do the results read?
combined z-score class: no change with or without drug; viability z-score with doxorubicin: 0.34; viability z-score without drug: 0

With B9d2, what does the deposit list?
combined z-score class: no change with or without drug; viability z-score with doxorubicin: -0.67; viability z-score without drug: 0

What did the screen give for Tpt1?
combined z-score class: no change with or without drug; viability z-score with doxorubicin: 1.46; viability z-score without drug: 0.34

With Galr2, what was measured?
combined z-score class: no change with or without drug; viability z-score with doxorubicin: -0.67; viability z-score without drug: -1.52

What did the screen give for Or1ad6?
combined z-score class: no change with or without drug; viability z-score with doxorubicin: -0.22; viability z-score without drug: -1.52

What is on record for Atp6v1h?
combined z-score class: no change with or without drug; viability z-score with doxorubicin: -0.79; viability z-score without drug: -0.84

For Slc39a1, what does the deposit list?
combined z-score class: low cell count with doxorubicin only (active); viability z-score with doxorubicin: -2.25; viability z-score without drug: -1.69

What did the screen give for Exd2?
combined z-score class: no change with or without drug; viability z-score with doxorubicin: -1.01; viability z-score without drug: 0.51

With Pcdhb11, what does the deposit list?
combined z-score class: low cell count with and without drug; viability z-score with doxorubicin: -3.04; viability z-score without drug: -2.19

For Rab11a, what does the deposit list?
combined z-score class: no change with or without drug; viability z-score with doxorubicin: 0; viability z-score without drug: -0.17

How did the screen score Mthfs?
combined z-score class: no change with or without drug; viability z-score with doxorubicin: 0.11; viability z-score without drug: 0.17

For Psmc3ip, how do the results read?
combined z-score class: no change with or without drug; viability z-score with doxorubicin: -0.56; viability z-score without drug: -0.34

What is on record for BC106179?
combined z-score class: no change with or without drug; viability z-score with doxorubicin: -1.24; viability z-score without drug: -0.51

With Sgpl1, how do the results read?
combined z-score class: no change with or without drug; viability z-score with doxorubicin: 0; viability z-score without drug: 0.17

What is on record for Hmgcs1?
combined z-score class: low cell count with doxorubicin only (active); viability z-score with doxorubicin: -2.25; viability z-score without drug: -1.18

Which result is listed for Zfp108?
combined z-score class: low cell count with doxorubicin only (active); viability z-score with doxorubicin: -2.02; viability z-score without drug: -0.67

How did the screen score Rab1b?
combined z-score class: no change with or without drug; viability z-score with doxorubicin: 0.9; viability z-score without drug: 1.69

What did the screen give for Ror1?
combined z-score class: no change with or without drug; viability z-score with doxorubicin: 1.57; viability z-score without drug: -0.17

With Prkdc, what does the deposit list?
combined z-score class: low cell count without drug only; viability z-score with doxorubicin: 0.9; viability z-score without drug: -2.19

Called active, of those listed so far:
Slc39a1 — combined z-score class: low cell count with doxorubicin only (active); viability z-score with doxorubicin: -2.25; viability z-score without drug: -1.69
Hmgcs1 — combined z-score class: low cell count with doxorubicin only (active); viability z-score with doxorubicin: -2.25; viability z-score without drug: -1.18
Zfp108 — combined z-score class: low cell count with doxorubicin only (active); viability z-score with doxorubicin: -2.02; viability z-score without drug: -0.67
